From patent US10729157B2, “Methods for regulating weight and size of animals” (Oragenics, Inc., priority 2004, dated 2020)

NCC(=O)O [glycine]
amounts of food or water consumed (adult female Fisher rats, between groups, whole experiment): No significant differences
food consumption (cause of weight loss) (adult male Fisher rats, 5% and 20% glycine diets): not a result of caloric restriction due to reduced food intake
